Source: patent publication US20200030262A1, “THERAPEUTIC SIGMA 1 RECEPTOR AGONISTS FOR TREATING LONG QT SYNDROME TYPE 1, TYPE 2, TYPE 6, TYPE 8 AND RELATED CHANNELOPATHIES” (priority 2017, published 2020)
Results are given in words; binding and its absence hold for the method and conditions named. Binding seen in cells or lysates may run through a third protein. Some entries that bind do so weakly or less than the wild type.

What was measured:
Sigma-1R [1] = biological target: T1, Sigma-1R (Homo sapiens, UniProt Q99720); assay: endogenous co-immunoprecipitation (CDK5 IP, western blot for sigma 1 receptor)
Sigma-1R [2] = biological target: T1, Sigma-1R; assay: co-immunoprecipitation: cardiomyocyte lysates on CDK5 antibody-conjugated beads, then western blot

binding (Sigma-1R [1]): binds
binding (Sigma-1R [2]): binds
Substance: cyclin-dependent kinase 5 (cdk5) (from UniProt Q00535 1-292) (enzyme)
